# Experimental data: the supplement of paper PMC8728848
# Some of the results follow.
# Tests used:
# Assay in all cases: glycan array binding signal (z-score within array); higher = stronger binding
# Conditions in all cases: glycan notation: IUPAC condensed, linker removed
# [1] = target: Fuc(a1-2)[GalNAc(a1-3)]Gal(b1-3)GlcNAc(b1-6)GalNAc
# In short: (§1)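 From the Consortium for Functional Glycomics database, 3228 arrays were curated, keeping only those whose protein sequence was available. Binding is given as a within-array Z-score averaged across arrays sharing a protein sequence and across linkers. Negative Z-scores can be read as non-binding.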
# [2] = target: Fuc(a1-2)[GalNAc(a1-3)]Gal(b1-4)Glc
# In short: as §1
# [3] = target: Fuc(a1-2)[GalNAc(a1-3)]Gal(b1-4)GlcNAc
# In short: as §1
# [4] = target: Fuc(a1-2)[GalNAc(a1-3)]Gal(b1-4)GlcNAc(b1-2)Man
# In short: as §1
# [5] = target: Fuc(a1-2)[GalNAc(a1-3)]Gal(b1-4)GlcNAc(b1-2)Man(a1-3)[Fuc(a1-2)[GalNAc(a1-3)]Gal(b1-4)GlcNAc(b1-2)Man(a1-6)]Man(b1-4)GlcNAc(b1-4)GlcNAc
# In short: as §1
# [6] = target: Fuc(a1-2)[GalNAc(a1-3)]Gal(b1-4)GlcNAc(b1-2)Man(a1-3)[Fuc(a1-2)[GalNAc(a1-3)]Gal(b1-4)GlcNAc(b1-2)Man(a1-6)]Man(b1-4)GlcNAc(b1-4)[Fuc(a1-6)]GlcNAc
# In short: as §1
# [7] = target: Fuc(a1-2)[GalNAc(a1-3)]Gal(b1-4)GlcNAc(b1-3)Gal(b1-4)GlcNAc
# In short: as §1
# [8] = target: Fuc(a1-2)[GalNAc(a1-3)]Gal(b1-4)GlcNAc(b1-3)Gal(b1-4)GlcNAc(b1-3)Gal(b1-4)GlcNAc
# In short: as §1
# [9] = target: Fuc(a1-2)[GalNAc(a1-3)]Gal(b1-4)GlcNAc(b1-3)GalNAc
# In short: as §1
# [10] = target: Fuc(a1-2)[GalNAc(a1-3)]Gal(b1-4)GlcNAc(b1-3)[Fuc(a1-2)[GalNAc(a1-3)]Gal(b1-4)GlcNAc(b1-6)]GalNAc
# In short: as §1
# [11] = target: Fuc(a1-2)[GalNAc(a1-3)]Gal(b1-4)GlcNAc(b1-6)GalNAc
# In short: as §1
# [12] = target: Fuc(a1-2)[GalNAc(a1-3)]Gal(b1-4)[Fuc(a1-3)]GlcNAc
# In short: as §1
# [13] = target: Fuc(a1-2)[GalNAc(a1-3)]Gal(b1-4)[Fuc(a1-3)]GlcNAc(b1-3)GalNAc
# In short: as §1
# [14] = target: Fuc(a1-2)[GalNAc(a1-4)]Gal(b1-4)GlcNAc
# In short: as §1
# [15] = target: Fuc(a1-2)[GalNAc(b1-3)]Gal
# In short: as §1
# Fuc(a1-3)GlcNAc = target: Fuc(a1-3)GlcNAc
# In short: as §1
# [16] = target: Fuc(a1-3)[Gal(b1-4)]Glc6S
# In short: as §1
# [17] = target: Fuc(a1-3)[Gal(b1-4)]GlcNAc
# In short: as §1
# [18] = target: Fuc(a1-3)[Gal(b1-4)]GlcNAc(b1-2)Man
# In short: as §1
# [19] = target: Fuc(a1-3)[Gal(b1-4)]GlcNAc(b1-2)Man(a1-3)[Fuc(a1-3)[Gal(b1-4)]GlcNAc(b1-2)Man(a1-6)]Man(b1-4)GlcNAc(b1-4)GlcNAc
# In short: as §1
# [20] = target: Fuc(a1-3)[Gal(b1-4)]GlcNAc(b1-2)Man(a1-3)[Fuc(a1-3)[Gal(b1-4)]GlcNAc(b1-2)Man(a1-6)]Man(b1-4)GlcNAc(b1-4)[Fuc(a1-6)]GlcNAc
# In short: as §1
# [21] = target: Fuc(a1-3)[Gal(b1-4)]GlcNAc(b1-3)Gal(b1-3)[Fuc(a1-4)]GlcNAc
# In short: as §1
# [22] = target: Fuc(a1-3)[Gal(b1-4)]GlcNAc(b1-3)Gal(b1-4)[Fuc(a1-3)]GlcNAc
# In short: as §1
# [23] = target: Fuc(a1-3)[Gal(b1-4)]GlcNAc(b1-3)Gal(b1-4)[Fuc(a1-3)]GlcNAc(b1-3)Gal(b1-4)[Fuc(a1-3)]GlcNAc
# In short: as §1
# [24] = target: Fuc(a1-3)[Gal(b1-4)]GlcNAc(b1-3)GalNAc
# In short: as §1
# [25] = target: Fuc(a1-3)[Gal(b1-4)]GlcNAc(b1-6)GalNAc
# In short: as §1
# [26] = target: Fuc(a1-3)[Gal(b1-4)]GlcNAc(b1-6)[Gal(b1-3)GlcNAc(b1-3)]Gal(b1-4)Glc
# In short: as §1
# [27] = target: Fuc(a1-3)[Gal(b1-4)]GlcNAc6S
# In short: as §1
# [28] = target: Fuc(a1-3)[Gal3S(b1-4)]Glc
# In short: as §1
# [29] = target: Fuc(a1-3)[Gal3S(b1-4)]GlcNAc
# In short: as §1
# [30] = target: Fuc(a1-3)[Gal3S(b1-4)]GlcNAc6S
# In short: as §1
# [31] = target: Fuc(a1-3)[GalNAc(b1-4)]GlcNAc
# In short: as §1
# [32] = target: Fuc(a1-3)[GalNAc(b1-4)]GlcNAc6S
# In short: as §1
# Fuc(a1-4)GlcNAc = target: Fuc(a1-4)GlcNAc
# In short: as §1
# Fuc(b1-3)GlcNAc = target: Fuc(b1-3)GlcNAc
# In short: as §1
# Gal(a1-2)Gal = target: Gal(a1-2)Gal
# In short: as §1
# Gal(a1-3)Gal = target: Gal(a1-3)Gal
# In short: as §1
binder,measurement,setting,value
B936 (Bifidobacterium sp) (protein) MKNWKKAIALVASAAALVSVAACGPSNAGGSSDSGKKTVGFVAVGPEGGFRTANEKDIQKAFEDAGFDLTYSPTQNNDQQKQIQAFNKFVNDEVDAIILSSTEDSGWDDSLKKAAEAEIPVFTVDRNVDVKDAEAKKAIVAHIGPSNVWCGEQAAEFVNKNFPDGANGFILEGPAGLSVVKDRGTGWGNKVASNVKVLESQSANWSTDEAKTVTAGLLDKYKSDNPQFIFAQNDEMGLGAAQAVDAAGLKGKVKIITIDGTKNALQALVDGDLSYVIEYNPIFGKETAQAVKDYLDGKTVEKDIEIESKTFDAASAKEALDNNTRAY,glycan array binding signal (z-score),[1],0.424
same,glycan array binding signal (z-score),[2],-0.128
same,glycan array binding signal (z-score),[3],-0.587
same,glycan array binding signal (z-score),[4],-0.733
same,glycan array binding signal (z-score),[5],-0.182
same,glycan array binding signal (z-score),[6],1.77
same,glycan array binding signal (z-score),[7],0.011
same,glycan array binding signal (z-score),[8],-0.293
same,glycan array binding signal (z-score),[9],0.342
same,glycan array binding signal (z-score),[10],-0.085
same,glycan array binding signal (z-score),[11],0.289
same,glycan array binding signal (z-score),[12],0.653
same,glycan array binding signal (z-score),[13],-0.006
same,glycan array binding signal (z-score),[14],0.289
same,glycan array binding signal (z-score),[15],0.25
same,glycan array binding signal (z-score),Fuc(a1-3)GlcNAc,-0.639
same,glycan array binding signal (z-score),[16],0.442
same,glycan array binding signal (z-score),[17],-0.143
same,glycan array binding signal (z-score),[18],-0.03
same,glycan array binding signal (z-score),[19],0.328
same,glycan array binding signal (z-score),[20],0.198
same,glycan array binding signal (z-score),[21],-1.23
same,glycan array binding signal (z-score),[22],-0.555
same,glycan array binding signal (z-score),[23],-0.659
same,glycan array binding signal (z-score),[24],0.323
same,glycan array binding signal (z-score),[25],-0.808
same,glycan array binding signal (z-score),[26],-0.786
same,glycan array binding signal (z-score),[27],-0.356
same,glycan array binding signal (z-score),[28],1.4
same,glycan array binding signal (z-score),[29],-0.416
same,glycan array binding signal (z-score),[30],0.399
same,glycan array binding signal (z-score),[31],0.207
same,glycan array binding signal (z-score),[32],-0.367
same,glycan array binding signal (z-score),Fuc(a1-4)GlcNAc,-0.936
same,glycan array binding signal (z-score),Fuc(b1-3)GlcNAc,0.48
same,glycan array binding signal (z-score),Gal(a1-2)Gal,0.741
same,glycan array binding signal (z-score),Gal(a1-3)Gal,-0.254

# Another view of part of the listing above:
binder | measurement | setting | value
B936 (Bifidobacterium sp) (protein) MKNWKKAIALVASAAALVSVAACGPSNAGGSSDSGKKTVGFVAVGPEGGFRTANEKDIQKAFEDAGFDLTYSPTQNNDQQKQIQAFNKFVNDEVDAIILSSTEDSGWDDSLKKAAEAEIPVFTVDRNVDVKDAEAKKAIVAHIGPSNVWCGEQAAEFVNKNFPDGANGFILEGPAGLSVVKDRGTGWGNKVASNVKVLESQSANWSTDEAKTVTAGLLDKYKSDNPQFIFAQNDEMGLGAAQAVDAAGLKGKVKIITIDGTKNALQALVDGDLSYVIEYNPIFGKETAQAVKDYLDGKTVEKDIEIESKTFDAASAKEALDNNTRAY | glycan array binding signal (z-score) | [6] | 1.77
same | glycan array binding signal (z-score) | [22] | -0.555
same | glycan array binding signal (z-score) | [25] | -0.808
